Laboratory results reported in article PMC6636133.
No constants are given. Whether binding was seen depends on the method and setting. Binding seen in cells or lysates may run through a third protein. Some results given as binding are weak or reduced against the parent protein; the word gives no strength.

Molecular target: p65 (co-IP with IκBα, Fig. 5b) (human), Q04206
Assay: co-IP; HEK 293T cells, with or without overexpressed BMAL1; immunoprecipitation with the indicated antibodies
Conditions: remark: other sources report otherwise

binding: binds
B1: IκBα, P25963 1-317 (protein)
chain: MFQAAERPQEWAMEGPRDGLKKERLLDDRHDSGLDSMKDEEYEQMVKELQEIRLEPQEVPRGSEPWKQQLTEDGDSFLHLAIIHEEKALTMEVIRQVKGDLAFLNFQNNLQQTPLHLAVITNQPEIAEALLGAGCDPELRDFRGNTPLHLACEQGCLASVGVLTQSCTTPHLHSILKATNYNGHTCLHLASIHGYLGIVELLVSLGADVNAQEPCNGRTALHLAVDLQNPDLVSLLLKCGADVNRVTYQGYSPYQLTWGRPSTRIQQQLGQLTLENLQMLPESEDEESYDTESEFTEFTEDELPYDDCVFGGQRLTL
